Reference: paper PMC6095599
Results are given in words; binding and its absence hold for the method and conditions named. In cells and extracts the contact can be indirect. Some entries that bind do so weakly or less than the wild type. Where a sequence is shown, tags or fusion partners need not be part of it.

T1: GST fusion to Mad3 (budding yeast) (UniProt P47074)
T1 sequence: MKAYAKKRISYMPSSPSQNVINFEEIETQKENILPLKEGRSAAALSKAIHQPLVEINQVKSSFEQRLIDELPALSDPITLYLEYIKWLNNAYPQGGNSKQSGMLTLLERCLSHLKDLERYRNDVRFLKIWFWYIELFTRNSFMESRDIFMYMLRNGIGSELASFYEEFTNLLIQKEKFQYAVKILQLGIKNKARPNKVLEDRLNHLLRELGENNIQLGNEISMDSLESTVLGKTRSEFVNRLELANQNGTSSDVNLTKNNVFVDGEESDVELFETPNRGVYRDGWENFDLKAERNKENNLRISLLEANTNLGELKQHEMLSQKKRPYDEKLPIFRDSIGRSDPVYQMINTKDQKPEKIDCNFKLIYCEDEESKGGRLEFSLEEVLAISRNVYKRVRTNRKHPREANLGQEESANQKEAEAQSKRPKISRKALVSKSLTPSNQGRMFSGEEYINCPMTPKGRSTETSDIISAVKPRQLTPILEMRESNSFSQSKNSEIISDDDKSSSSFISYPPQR

T2: GST–Cdc4 (budding yeast) (UniProt P07834)
T2 sequence: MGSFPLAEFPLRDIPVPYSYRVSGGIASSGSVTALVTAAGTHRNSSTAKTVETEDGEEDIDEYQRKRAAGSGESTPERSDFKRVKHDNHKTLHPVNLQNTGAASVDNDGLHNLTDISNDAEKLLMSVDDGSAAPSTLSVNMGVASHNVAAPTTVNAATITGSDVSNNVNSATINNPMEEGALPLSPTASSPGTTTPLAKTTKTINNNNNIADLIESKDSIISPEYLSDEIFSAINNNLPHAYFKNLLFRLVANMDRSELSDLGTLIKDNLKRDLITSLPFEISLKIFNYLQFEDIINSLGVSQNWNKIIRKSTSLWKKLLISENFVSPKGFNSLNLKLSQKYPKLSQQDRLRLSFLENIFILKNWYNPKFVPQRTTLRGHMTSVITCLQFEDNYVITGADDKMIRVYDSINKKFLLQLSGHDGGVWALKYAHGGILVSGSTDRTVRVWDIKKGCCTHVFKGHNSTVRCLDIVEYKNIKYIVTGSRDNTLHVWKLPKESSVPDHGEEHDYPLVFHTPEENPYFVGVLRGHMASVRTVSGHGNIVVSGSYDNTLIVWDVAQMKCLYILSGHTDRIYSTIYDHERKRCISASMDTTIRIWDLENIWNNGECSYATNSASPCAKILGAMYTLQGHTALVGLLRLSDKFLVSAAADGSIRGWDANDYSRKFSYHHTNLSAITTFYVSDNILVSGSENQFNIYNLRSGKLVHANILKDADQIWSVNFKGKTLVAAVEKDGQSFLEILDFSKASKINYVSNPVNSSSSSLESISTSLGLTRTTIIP

B1: Cln3–13myc (protein, UniProt P13365 1-580)
chain: MAILKDTIIRYANARYATASGTSTATAASVSAASCPNLPLLLQKRRAIASAKSKNPNLVKRELQAHHSAISEYNNDQLDHYFRLSHTERPLYNLTNFNSQPQVNPKMRFLIFDFIMYCHTRLNLSTSTLFLTFTILDKYSSRFIIKSYNYQLLSLTALWISSKFWDSKNRMATLKVLQNLCCNQYSIKQFTTMEMHLFKSLDWSICQSATFDSYIDIFLFQSTSPLSPGVVLSAPLEAFIQQKLALLNNAAGTAINKSSSSQGPSLNINEIKLGAIMLCELASFNLELSFKYDRSLIALGAINLIKLSLNYYNSNLWENINLALEENCQDLDIKLSEISNTLLDIAMDQNSFPSSFKSKYLNSNKTSLAKSLLDALQNYCIQLKLEEFYRSQELETMYNTIFAQSFDSDSLTCVYSNATTPKSATVSSAATDYFSDHTHLRRLTKDSISPPFAFTPTSSSSSPSPFNSPYKTSSSMTTPDSASHHSHSGSFSSTQNSFKRSLSIPQNSSIFWPSPLTPTTPSLMSNRKLLQNLSVRSKRLFPVRPMATAHPCSAPTQLKKRSTSSVDCDFNDSSNLKKTR
B2: Mad3–3HA (protein, UniProt P47074 1-515)
chain: T1 sequence

How the values were obtained:
[1] = target: T1, GST fusion to Mad3 (budding yeast); experiment: pull-down; GST fusions affinity purified with glutathione beads from extracts of cdc4ts grr1 yeast cells co-expressing Cln3–13myc; immunoblot with αmyc and αGST
GST–Cdc4 (budding yeast) = target: T2, GST–Cdc4 (budding yeast); experiment: pull-down; GST or GST–Cdc4 affinity purified with glutathione beads from extracts of yeast cells co-expressing Mad3–3HA or Mad3 ΔGLEBS–3HA; immunoblot with αHA and αGST

Binder	binding [1]	binding (GST–Cdc4 (budding yeast))
B1	binds	
B2		binds
